PubChem BioAssay AID504744 | Drosophila RNAi Screening Center – 2011

- Aim: 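Identify dsRNAs that increase or decrease phospho-dAkt after insulin treatment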 (primary screen)
- System: Drosophila Kc167 cells
- Reagent: long dsRNA against Drosophila genes, 250 ng dsRNA per well of a 384-well plate
- Time to read-out: 3 days of knock-down, then overnight serum-free starvation before stimulation
- Conditions: bovine insulin at 387 nM for 10 minutes after 12 h without serum
- Measurement: 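Per-well phospho-dAkt level from an in-cell fluorescent antibody stain, divided by a DNA-dye signal; log2 residuals turned into z-scores that take cell number into account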
- Active means: 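Under insulin, a gene counts as a hit if the average z-score of two replicates lies above 2.5 or below -2.5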
The deposit covers about 23,000 reagents; shown is an unselected part of those that have a named target and a result. Over the whole deposit, 98 (0.43%) were called active. 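Only hit calls are given; the phospho-dAkt signals, z-scores and hit direction were not deposited.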 Names joined by + are all predicted targets of the reagent. No sequences are given here.

gene knocked down | DRSC id | outcome
CG15118 | DRSC06540 | inactive
CG3842 | DRSC18326 | inactive
CG32650 | DRSC19899 | inactive
Fpgs2 | DRSC00600 | inactive
hebe | DRSC05192 | inactive
hebe | DRSC06605 | inactive
hebe | DRSC21614 | inactive
CG6984 | DRSC07013 | inactive
CG14853 | DRSC14977 | inactive
CG14853 | DRSC21528 | inactive
CG14543 | DRSC14887 | inactive
alpha-Man-Ia | DRSC17642 | inactive
alpha-Man-Ia | DRSC18162 | inactive
alpha-Man-Ia | DRSC18163 | inactive
alpha-Man-Ia | DRSC18735 | inactive
CG13114 | DRSC02212 | inactive
Mst89B | DRSC16748 | inactive
PpY-55A | DRSC07513 | inactive
dome | DRSC19583 | inactive
CG32563 | DRSC19934 | inactive
Dnaaf5 | DRSC13032 | inactive
alpha-Est7 | DRSC12619 | inactive
OtopLa | DRSC17787 | inactive
OtopLa | DRSC18133 | inactive
CG34196 | DRSC05704 | inactive
CG1983 | DRSC15410 | inactive
CG45067 | DRSC08414 | inactive
CG4198 | DRSC18354 | inactive
CG12164 | DRSC06115 | inactive
CG12164 | DRSC21777 | inactive
pip | DRSC11382 | inactive
CG13123 | DRSC02219 | inactive
mlt | DRSC06120 | inactive
Snm1 | DRSC12130 | inactive
Sgs4 | DRSC18715 | inactive
CG12540 | DRSC19471 | inactive
CG11977 | DRSC14454 | active
St2 | DRSC15142 | inactive
St2 | DRSC22624 | inactive
RhoGAP18B | DRSC19763 | inactive
RhoGAP18B | DRSC20047 | inactive
RhoGAP18B | DRSC20048 | inactive
RhoGAP18B | DRSC20049 | inactive
CG5773 | DRSC06955 | inactive
CG14089 | DRSC10093 | inactive
CG14309 | DRSC14788 | inactive
mthl2 | DRSC10287 | inactive
CG34323 | DRSC18916 | inactive
CG30049 | DRSC21345 | inactive
psidin | DRSC15660 | inactive
CG18542 + CG32939 | DRSC15342 | inactive
toc | DRSC00169 | inactive
toc | DRSC00171 | inactive
toc | DRSC00842 | inactive
CG34107 | DRSC14554 | inactive
CG8289 | DRSC20101 | inactive
BomS6 | DRSC21676 | inactive
CG31262 | DRSC13216 | inactive
CG14275 | DRSC02379 | inactive
CG15635 | DRSC00470 | inactive
CG15635 | DRSC22873 | inactive
Prosbeta5R2 | DRSC01617 | inactive
eEF5 | DRSC04681 | inactive
CG33543 | DRSC00384 | inactive
CG33543 | DRSC00385 | inactive
CG12010 | DRSC08218 | inactive
CG33189 | DRSC21427 | inactive
CG9018 | DRSC08618 | inactive
su(f) | DRSC20907 | inactive
Nxf3 | DRSC21749 | inactive
mus201 + Chrac-14 | DRSC03568 | inactive
mus201 + Chrac-14 | DRSC03575 | inactive
CG31463 | DRSC14346 | inactive
CG32815 | DRSC18177 | inactive
MICU1 | DRSC02752 | inactive
CG17242 | DRSC00493 | inactive
CG10864 | DRSC14273 | inactive
CG42506 (retired record) + CG43759 | DRSC19464 | inactive
CG42506 (retired record) + CG43759 | DRSC19543 | inactive
Pax | DRSC01703 | inactive
Pax | DRSC02651 | inactive
Pax | DRSC02652 | inactive
CG33298 | DRSC02210 | inactive
CG33298 | DRSC02672 | inactive
Las | DRSC11772 | inactive
CG10814 | DRSC06004 | inactive
AgmNAT | DRSC18072 | inactive
Iris | DRSC00663 | inactive
Had1 | DRSC20216 | inactive
CG10752 | DRSC09799 | inactive
CG15576 | DRSC18064 | inactive
spz5 | DRSC08645 | inactive
CG6179 | DRSC19973 | inactive
CG4483 | DRSC10426 | inactive
CG13427 | DRSC06389 | inactive
CG1075 (retired record) | DRSC12144 | inactive
CG31735 | DRSC01518 | inactive
Vps13D | DRSC09818 | inactive
Vps13D | DRSC09819 | inactive
CRAT | DRSC12523 | inactive
ppk26 | DRSC10991 | inactive
CG32813 | DRSC17948 | inactive
CG5098 | DRSC06915 | inactive
cher | DRSC16924 | inactive
CG5910 | DRSC11786 | inactive
emc | DRSC08715 | inactive
CG8520 | DRSC07206 | inactive
CG31436 | DRSC14661 | inactive
CG34039 | DRSC09318 | inactive
tty | DRSC20588 | inactive
CG7579 | DRSC10885 | inactive
GstE14 | DRSC06881 | inactive
CG34155 | DRSC13991 | inactive
CG18636 | DRSC02685 | inactive
GC1 | DRSC15322 | inactive
Ugt302E1 | DRSC15635 | inactive
Mettl3 | DRSC15921 | inactive
Femcoat | DRSC18061 | inactive
Ir93a | DRSC15212 | inactive
Ir93a | DRSC15213 | inactive
CAH1 + Adat1 | DRSC02009 | inactive
CG42376 + cin | DRSC18752 | inactive
JMJD6 | DRSC15787 | inactive
tank | DRSC00461 | inactive
Gcna | DRSC18553 | inactive
CG34024 (retired record) | DRSC13734 | inactive
CG34253 | DRSC09531 | inactive
D | DRSC11132 | inactive
Cftr | DRSC15872 | inactive
shakB | DRSC20492 | inactive
shakB | DRSC20585 | inactive
shakB | DRSC22817 | inactive
CG12729 | DRSC17884 | inactive
CG9396 | DRSC16487 | inactive
mei-S332 | DRSC04704 | inactive
Vsp37A | DRSC18794 | inactive
mRpL38 | DRSC19734 | inactive
Ir94d | DRSC21568 | inactive
CG14568 | DRSC11729 | inactive
CG10657 | DRSC09768 | inactive
Unr | DRSC10761 | inactive
Nubp1 | DRSC02639 | inactive
CG13625 | DRSC14627 | inactive
Uqcc1 + CG9948 | DRSC09690 | inactive
IntS11 | DRSC15407 | inactive
CG33514 | DRSC08471 | inactive
CG33514 | DRSC08472 | inactive
CG33514 | DRSC21670 | inactive
rhea | DRSC11300 | inactive
eas | DRSC20329 | inactive
CG12355 | DRSC09381 | inactive
CG12355 | DRSC09883 | inactive
dare + CG30033 | DRSC22908 | inactive
Gr63a | DRSC08438 | inactive
Nep2 | DRSC12126 | inactive
Nep2 | DRSC21398 | inactive
CG42390 | DRSC15866 | inactive
CG10737 | DRSC05999 | inactive
Prx6a | DRSC00565 | inactive
Son | DRSC16400 | inactive
RabX1 | DRSC04678 | inactive
RpL34a | DRSC15964 | inactive
Det | DRSC14489 | inactive
ImpE2 | DRSC08665 | inactive
Gbs-76A | DRSC11081 | inactive
CG10748 | DRSC09797 | inactive
CG31226 | DRSC21724 | inactive
alpha-Est2 | DRSC12614 | inactive
sac | DRSC12237 | inactive
CG4714 | DRSC06883 | inactive
CG4324 | DRSC04462 | inactive
Hr3 | DRSC06118 | inactive
Hr3 | DRSC07441 | inactive
CG33474 | DRSC05218 | inactive
CG31231 | DRSC13308 | inactive
bard | DRSC14796 | inactive
Sirt1 | DRSC03435 | inactive
CG3987 | DRSC15531 | inactive
CG14036 | DRSC02361 | inactive
spg | DRSC14373 | inactive
spg | DRSC14881 | inactive
CG11000 | DRSC12158 | inactive
BckdhA | DRSC16395 | inactive
CG8611 | DRSC19340 | inactive
CG31345 | DRSC14193 | inactive
CG31345 | DRSC14847 | inactive
CG15710 | DRSC06581 | inactive
Pgant4 | DRSC00717 | inactive
CG18585 | DRSC02678 | inactive
Or71a | DRSC11244 | inactive
Syt7 | DRSC17130 | inactive
Syt7 | DRSC17159 | inactive
Rsph3 | DRSC09696 | inactive
Rsph3 | DRSC10211 | inactive
idc | DRSC15680 | inactive
Ripalpha | DRSC02657 | inactive
CG31778 | DRSC00283 | inactive
CG10237 | DRSC02029 | inactive
Or65c | DRSC21312 | inactive
Rad60 | DRSC15580 | inactive

No new results follow: entries from further up.
gene knocked down | DRSC id | outcome
CG13123 | DRSC02219 | inactive
mlt | DRSC06120 | inactive
Snm1 | DRSC12130 | inactive
Sgs4 | DRSC18715 | inactive
CG12540 | DRSC19471 | inactive
CG11977 | DRSC14454 | active
St2 | DRSC15142 | inactive
St2 | DRSC22624 | inactive
RhoGAP18B | DRSC19763 | inactive
RhoGAP18B | DRSC20047 | inactive
RhoGAP18B | DRSC20048 | inactive
RhoGAP18B | DRSC20049 | inactive
CG5773 | DRSC06955 | inactive
CG14089 | DRSC10093 | inactive
CG14309 | DRSC14788 | inactive
mthl2 | DRSC10287 | inactive
CG34323 | DRSC18916 | inactive
CG30049 | DRSC21345 | inactive
psidin | DRSC15660 | inactive
CG18542 + CG32939 | DRSC15342 | inactive
toc | DRSC00169 | inactive
toc | DRSC00171 | inactive
